Test results from PMC3910004.

Target: T1, human interleukin-6 receptor (hIL-6R) (Homo sapiens) (UniProt P08887)
T1 sequence: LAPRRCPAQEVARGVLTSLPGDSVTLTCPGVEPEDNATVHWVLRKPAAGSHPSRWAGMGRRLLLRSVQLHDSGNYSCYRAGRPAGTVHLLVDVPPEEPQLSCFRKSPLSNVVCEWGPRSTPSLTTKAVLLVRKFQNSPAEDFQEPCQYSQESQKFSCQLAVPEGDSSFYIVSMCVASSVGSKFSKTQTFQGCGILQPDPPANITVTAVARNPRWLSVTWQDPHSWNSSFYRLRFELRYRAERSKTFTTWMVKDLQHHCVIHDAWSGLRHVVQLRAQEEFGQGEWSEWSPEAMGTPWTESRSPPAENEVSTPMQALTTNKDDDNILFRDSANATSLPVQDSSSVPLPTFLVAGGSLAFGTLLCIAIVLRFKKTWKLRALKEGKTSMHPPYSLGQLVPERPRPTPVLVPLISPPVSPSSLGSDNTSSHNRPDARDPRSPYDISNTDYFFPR
Assay: flow cytometry (ce6 fluorescence)
Settings: 50 nM conjugate, 45 min, Cell binding by flow cytometry, serum-free medium, 37 °C (stated for the uptake in cytotoxicity assays), protein on the cell surface, label: chlorin e6

Sequence | binding result (hIL-6R-lacking cells only slight nonspecific binding, 3' C6H12NH2 amino linker coupled to chlorin e6 (EDC/NHS)) | binding result (cells nonfluorescing, 3' C6 amino linker coupled to chlorin e6 (EDC/NHS))
GGGGAGGCUGUGGUGAGGG [AIR-3A-ce6] | binds | –
GGAGGGUUGGGGUGGCGGA [shuffled-AIR-3A-ce6] | – | no binding

Construct, isoform or probe ends are uncertain for at least one entry. Results from cells or extracts need not show a direct contact. Negatives hold for the conditions tested.
